From PubChem BioAssay AID540276 (National Center for Advancing Translational Sciences (NCATS), 2011)
Out of some 300,000 compounds screened, about 5,400 (1.8%) were called active. The inconclusive results got no clear call from the source; some entries with a clear call stand among them for comparison. Calls come from the whole dose curve; tested in HEK293 cells. Potencies of inconclusive entries are doubtful fits and often do not repeat.

Test: qHTS for inhibitors of binding or entry into cells for Marburg Virus
Conditions: Marburg virus pseudotyped entry inhibition, cell reporter; activity change, negative = inhibition: at 37.8 µM (top of the series) unless noted
% is set by controls: 0 for no effect and ±100 for the full control effect; potency is the fitted concentration of half-maximal effect.

Row | SMILES | Potency | activity change, negative = inhibition
1 | c1ccc2sc(C3(N4CCCCC4)CCCCC3)cc2c1 | active: 7.08 µM | 
2 | CSc1nc(-c2ccc(C)cc2)nc(C(Cl)Cl)n1 | inconclusive: 6.51 µM [inhibitor, full curve, poor fit] | 
3 | CC(C)C(=O)Nc1cccc(C(=O)NCc2ccc3c(c2)OCO3)c1 | inconclusive: 32.6 µM [inhibitor, partial curve, poor fit] | 
4 | COc1ccc2c(c1)c(C(=O)OCCN(C)C)c(C)n2C |  | inactive: -1.85% [at 46.1 µM]
5 | COc1ccc(C(=O)Nc2cc(C(C)C)c(O)c(S(=O)(=O)c3ccc(OC)cc3)c2C)cc1 | inconclusive: 1.41 µM [activator, partial curve, poor fit] | 
6 | CC1CCCCN1C(=O)CNCc1ccc(F)cc1 (stereo not given) |  | inactive: 27.8%
7 | Cc1cccc(C)c1OCC(=O)NNC(=O)c1ccoc1C | inconclusive: 1.26 µM [inhibitor, single point] | 
8 | O=C(O)c1cnn(-c2ccccc2)c1C(F)(F)F | inconclusive: 5.62 µM [activator, single point] | 
9 | CC(C)c1ccccc1NC(=O)COC(=O)Cc1cccc(C(F)(F)F)c1 | inconclusive: 2 µM [activator, full curve] | 
10 | Cc1cc(NC(=O)COC(=O)c2ccccc2NCCO)no1 |  | inactive: 15.3%
11 | COc1ccc(OC)c(NC(=O)CC2SC(=N)N(c3ccccc3)C2=O)c1 (stereo not given) |  | inactive: -8.42% [at 46.1 µM]
12 | COc1ccc(NC(=O)c2ccccc2C)cc1 | inconclusive: 5.62 µM [activator, single point] | 
13 | CNC(=O)c1ccsc1NC(=O)c1ccc(S(=O)(=O)N2CCc3ccccc32)cc1 | inconclusive: 18.4 µM [inhibitor, partial curve, poor fit] | 
14 | CCOc1cccc(NC(=O)C2CC(=O)N(c3ccc(F)cc3)C2)c1 (stereo not given) |  | inactive: 15.5%
15 | Cc1cccc2sc(NC(=O)CSCc3ccccc3)nc12 | inconclusive: 9.2 µM [inhibitor, single point] | 
16 | O=C(c1cc(COc2ccc3ncccc3c2)on1)N1CCC(O)CC1 | inconclusive: 1 µM [inhibitor, full curve, poor fit] | 
17 | O=C1CN(C(=O)c2ccc(Br)o2)C(c2ccc(F)cc2)c2cc(F)ccc2N1 (stereo not given) | inconclusive: 29.1 µM [inhibitor, single point] | 
18 | Cc1noc(C)c1COC(=O)c1ccc(F)c(S(=O)(=O)N2CCCCC2)c1 |  | inactive: -27.1%
19 | CCOc1ccccc1NC(=O)c1ccc2ccccc2c1 |  | inactive: -7.58% [at 46.1 µM]
20 | Cc1ccc(C)c(NC(=O)c2ccccn2)c1 |  | inactive: 8.43%
21 | O=C(NC(=S)NCc1cccnc1)c1cccc2ccccc12 | inconclusive: 0.562 µM [inhibitor, full curve, poor fit] | 
22 | CC(C)OC(=O)CSc1nnnn1-c1ccc2c(c1)OCCO2 |  | inactive: -0.42%
23 | Cc1ccc(OCCN2CCN(C(=O)CCC(=O)Nc3nnc(C)s3)CC2)cc1 |  | inactive: -2.58% [at 46.1 µM]
24 | CC(C)N(Cc1ccccc1)C(=O)COC(=O)/C=C/c1cnc2ccccc2n1 |  | inactive: -18.2% [at 46.1 µM]

Row | SMILES | Potency | activity change, negative = inhibition
25 | O=C(c1cc(C2CC2)on1)N1CCCC(N2CCN(c3cccc(C(F)(F)F)c3)CC2)C1 (stereo not given) | inconclusive: 35.5 µM [inhibitor, single point] | 
26 | Cc1ccc(Nc2nnc(-c3ccc(C)c(S(=O)(=O)N4CCN(C)CC4)c3)c3ccccc23)c(C)c1 |  | inactive: 11.5% [at 46.1 µM]
27 | O=C(CCc1ccccc1)Nc1c(F)cccc1F | inconclusive: 25.9 µM [activator, single point] | 
28 | Cc1ccc(SCC(=O)OC(C)C(=O)N2CCc3ccccc32)cc1 (stereo not given) | inconclusive: 7.94 µM [activator, partial curve, poor fit] | 
29 | COc1ccc(-n2c(=O)cc(N3CCCCCC3)[nH]c2=O)cc1 |  | inactive: -4.3%
30 | Cc1ccc([C@H]2Nc3ccc(S(=O)(=O)Nc4cccc(Cl)c4C)cc3[C@H]3C=CC[C@H]32)cc1 | inconclusive: 15.8 µM [inhibitor, single point] | 
31 | CCn1nc(C)c(C2C(C#N)=C(N)OC3=C2C(=O)CC(C)(C)C3)c1C (stereo not given) | inconclusive: 1.26 µM [activator, single point] | 
32 | CCOc1cccc(C(=O)Nc2ccccc2OC(F)F)c1 | inconclusive: 15.8 µM [activator, single point] | 
33 | CS(=O)(=O)c1ccccc1C(=O)N1CCN(S(=O)(=O)c2ccc(C3CCCCC3)cc2)CC1 | inconclusive: 7.08 µM [inhibitor, partial curve] | 
34 | CCOc1ccc(C(CCc2ccccc2)NC(=O)c2ccc(OC)c(OC)c2)cc1OCC (stereo not given) | inconclusive: 29.1 µM [inhibitor, single point] | 
35 | CCOc1cccc(/C(O)=C2/C(=O)C(=O)N(CCOC)C2c2ccco2)c1 (stereo not given) |  | inactive: -1.52%
36 | CCOC(=O)Cc1cc(=O)[nH]c(Nc2nc3ccccc3o2)n1 | inconclusive: 7.3 µM [activator, partial curve, poor fit] | 
37 | Cc1cc(C)c(Cn2c(CCNC(=O)c3ccco3)nc3ccccc32)c(C)c1 | inconclusive: 12.6 µM [inhibitor, partial curve, poor fit] | 
38 | CCn1c(C)nc2cc(C(=O)OCCC(F)(F)F)ccc21 |  | inactive: 16.4%
39 | COc1cc(NC(=O)C2=C(C)OCCS2)c(Cl)cc1C(=O)NCCN(C)C | active: 10 µM | 
40 | Cc1noc(C)c1COc1ccccc1C(=O)NCCc1ccccc1 |  | inactive: -10.7%
41 | Cc1c(C)n2c(SCC(=O)NC3CCCCC3)nnc2[nH]c1=O |  | inactive: -7.65% [at 46.1 µM]
42 | CCCNC(=O)C1CN(C(=O)c2nn(Cc3ccccc3)c(=O)c3ccccc23)c2ccccc2O1 (stereo not given) | inconclusive: 1.41 µM [inhibitor, partial curve, poor fit] | 
43 | O=C(NC1CC1)c1ccc(CN(c2ccccc2)S(=O)(=O)c2ccccc2)cc1 | inconclusive: 5.62 µM [inhibitor, single point] | 
44 | Cc1ccc(CN2CCC3CCC(C3)C2)c(O)c1 (stereo not given) | inconclusive: 1.12 µM [inhibitor, single point] | 
45 | O=C(Nc1ccc(O)cc1)c1ccc(NC(=O)c2cccs2)cc1 | inconclusive: 5.01 µM [inhibitor, full curve, poor fit] | 
46 | CCc1ccc(Nc2nn3c(=O)c4cc5c(cc4nc3s2)OCO5)cc1 | inconclusive: 10 µM [activator, partial curve] | 
47 | COC(=O)c1cc2oc3ccccc3c2n1Cc1nc(-c2cccc(Cl)c2)oc1C |  | inactive: -1.61% [at 46.1 µM]
48 | CC(C)(Sc1cc(C(C)(C)C)c(O)c(C(C)(C)C)c1)Sc1cc(C(C)(C)C)c(O)c(C(C)(C)C)c1 |  | inactive: -4.43%

Single entries from the list.
Potency with `CCn1nc(C)c(C2C(C#N)=C(N)OC3=C2C(=O)CC(C)(C)C3)c1C` (stereo not given) is entered as inconclusive: 1.26 µM [activator, single point]
Potency with `COc1ccc(C(=O)Nc2cc(C(C)C)c(O)c(S(=O)(=O)c3ccc(OC)cc3)c2C)cc1` is entered as inconclusive: 1.41 µM [activator, partial curve, poor fit]
Potency with `CS(=O)(=O)c1ccccc1C(=O)N1CCN(S(=O)(=O)c2ccc(C3CCCCC3)cc2)CC1` is entered as inconclusive: 7.08 µM [inhibitor, partial curve]
activity change, negative = inhibition with `CC(C)N(Cc1ccccc1)C(=O)COC(=O)/C=C/c1cnc2ccccc2n1` is entered as inactive: -18.2% [at 46.1 µM]
activity change, negative = inhibition with `CCOc1cccc(NC(=O)C2CC(=O)N(c3ccc(F)cc3)C2)c1` (stereo not given) is entered as inactive: 15.5%

Next structures

Row | SMILES | Potency | activity change, negative = inhibition
49 | Cc1ccc(CNC(=O)[C@H]2C[C@@H]2[C@H](NP(=O)(c2ccccc2)c2ccccc2)c2ccccc2)o1 | inconclusive: 23.1 µM [inhibitor, partial curve, poor fit] | 
50 | CC1CCCC(NC(=O)COC(=O)CN2C(=O)C3CCCCC3C2=O)C1C (stereo not given) | inconclusive: 0.562 µM [activator, partial curve, poor fit] | 
51 | COC(=O)C1CN(S(=O)(=O)c2cc(OC)ccc2OC)CCS1 (stereo not given) |  | inactive: 3.8%
52 | COCCCn1c(-c2ccc(OC)cc2)cc(C(=O)NC2CCCCCCC2)c1C | inconclusive: 0.316 µM [inhibitor, full curve, poor fit] | 
53 | CCn1c(SCC(=O)N/N=C/c2c[nH]c3ccccc23)nnc1-c1ccc(Cl)cc1 | inconclusive: 12.6 µM [inhibitor, single point] | 
54 | Cc1cccc(-c2ccc(C=Nc3c(C)n(C)n(-c4ccccc4)c3=O)o2)c1 | inconclusive: 10 µM [inhibitor, partial curve] | 
55 | Cc1ccccc1C(=O)N/N=C/c1ccsc1C |  | inactive: 18.4%
56 | O=C(/C=C/c1ccccc1Cl)c1cccnc1 | inconclusive: 11.2 µM [inhibitor, partial curve, poor fit] | 
57 | COc1ccc(S(=O)(=O)N2CCOCC2)cc1NC(=O)c1cc2ccccc2o1 |  | inactive: -11.7% [at 46.1 µM]
58 | COc1cc(OC)cc(C(=O)N[C@H](C(=O)NCc2ccccc2)C(C)C)c1 |  | inactive: -18.8% [at 46.1 µM]
59 | Cc1cccc(NCc2nc3ccccc3n2Cc2ccccc2)c1 | inconclusive: 18.3 µM [inhibitor, single point] | 
60 | COc1ccc(Cn2cc(C(=O)c3ccc(Cl)cc3)c(=O)c3cc4c(cc32)OCO4)cc1 | inconclusive: 35.5 µM [inhibitor, single point] | 
61 | CCOc1ccc(NC(=O)C2CCN(C(=O)C3CC(=O)N(c4ccc(C)cc4)C3)CC2)cc1 (stereo not given) | inconclusive: 5.62 µM [activator, partial curve] | 
62 | Cc1ccc(N(C(=O)Cn2nnc(-c3ccc(F)cc3)n2)C(C(=O)NC(C)(C)C)c2ccncc2)cc1 (stereo not given) | inconclusive: 22.4 µM [inhibitor, single point] | 
63 | CCCC(c1nnnn1Cc1ccc(OC)cc1)N1CCN(c2ccccc2OC)CC1 (stereo not given) | inconclusive: 3.55 µM [inhibitor, partial curve, poor fit] | 
64 | CCN(CC)S(=O)(=O)c1cccc(C(=O)NC2CCCCC2)c1 | inconclusive: 20.6 µM [activator, partial curve, poor fit] | 
65 | Fc1cccc(Cn2ccc(-c3ccc4c(c3)OCO4)n2)c1 | inconclusive: 5.8 µM [activator, full curve] | 
66 | COc1cccc(CSc2nc3ccccc3[nH]2)c1 | inconclusive: 0.517 µM [activator, full curve, poor fit] | 
67 | COc1ccc(OC(=O)NCCc2ccccc2)cc1 | inconclusive: 6.31 µM [activator, full curve, poor fit] | 
68 | C[C@]12C[C@@](C)(C=C1C=Cc1ccccc1)C(=O)C[C@H]2c1ccccc1 |  | inactive: 2.55% [at 14.2 µM]
69 | O=C(O)C1CC=CCC1C(=O)Nc1ccc(S(=O)(=O)N2CCCc3ccccc32)cc1 (stereo not given) | active: 2.06 µM | 
70 | COc1ccccc1NC(=O)c1oc2ccccc2c1NC(=O)c1c(F)cccc1F | inconclusive: 7.94 µM [activator, partial curve, poor fit] | 
